Measurements as given in PubChem BioAssay AID2551 (National Center for Advancing Translational Sciences (NCATS), 2010).
Several values for one entry are separate records, joined by “and”; a condition that tells them apart may be missing. Identical values can stand only once. Among all 310,000 compounds or so, about 17,000 (5.5%) were called active. This list was built around the results that the source calls inconclusive (neither active nor inactive); the mix of calls is not that of the screen. Calls follow the shape of the dose curve; as a rule, active = well fitted inhibition curve with a large enough effect; inconclusive = small, poorly fitted or top-dose-only effect, or effect the other way; inactive = no such curve, though single readings can be large or run the other way. A potency beside an inconclusive call is a rough fit, not a confirmed value. Where a structure was tested more than once in an assay, its records may differ in their call.

By UniProt entry, the sequences of proteins in these tests, tags left out. Where a name states a change or a piece, a line headed by the entry shows the natural chain unless it says otherwise.
UniProt P51450: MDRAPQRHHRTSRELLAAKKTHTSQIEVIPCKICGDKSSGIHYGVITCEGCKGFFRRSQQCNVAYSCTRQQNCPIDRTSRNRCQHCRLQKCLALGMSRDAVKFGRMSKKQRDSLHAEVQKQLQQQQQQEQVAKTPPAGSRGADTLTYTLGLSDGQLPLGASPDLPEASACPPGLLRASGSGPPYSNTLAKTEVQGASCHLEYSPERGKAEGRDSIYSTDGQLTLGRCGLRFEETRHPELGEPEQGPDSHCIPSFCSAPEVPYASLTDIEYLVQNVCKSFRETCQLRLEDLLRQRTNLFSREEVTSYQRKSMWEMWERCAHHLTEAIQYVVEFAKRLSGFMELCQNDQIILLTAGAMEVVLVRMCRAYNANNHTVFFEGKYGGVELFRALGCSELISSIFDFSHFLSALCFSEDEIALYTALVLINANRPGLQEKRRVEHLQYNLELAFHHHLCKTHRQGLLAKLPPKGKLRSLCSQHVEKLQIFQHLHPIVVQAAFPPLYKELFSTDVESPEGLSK

Each compound was assayed against Nuclear receptor ROR-gamma (Mus musculus) (UniProt P51450) (assay: qHTS for inhibitors of ROR gamma transcriptional activity). Settings: Drosophila S2 Gal4-RORgamma UAS-luciferase reporter, 20 h; activity change, negative = inhibition: at 53.6 µM (top of the series).
In short: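 A Gal4/UAS one-hybrid system in insect cells: metallothionein-promoter Gal4–ROR gamma fusion plus Photinus luciferase reporter. Copper sulfate 700 uM final, 20 hr ambient incubation, luminescent detection after 10 min with reagent.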
% is scaled to controls: 0 for no effect and ±100 for the full control effect; potency is read from the fitted curve at half-maximal effect.
Also: nearly all actives have a fitted effect of over 60% in size.

Potency, active:
Cc1ccc(NC(=S)NCCSc2ccc(Cl)cc2)c(C)c1 0.794 µM
CCCC(O)(CCC)C(=O)NN(C(=O)CCl)c1cccc(C)c1 15.8 µM
Cc1ccsc1/C=C1\Oc2cc(OCC(=O)c3ccccc3)ccc2C1=O 15.8 µM
O=C(NNC1=Nc2ccccc2SC1)c1ccccc1F 0.891 µM
O=C(COc1ccccc1)NC(=S)Nc1ccc(Br)cn1 12.6 µM
Oc1ccccc1/C=N/NC(=S)NCCc1ccccc1 7.08 µM

Potency, inconclusive:
CCOc1ccc(S(=O)(=O)N(C)CC(=O)NC2CCCC2)cc1 11.2 µM [activator, single point]
CN(C)S(=O)(=O)c1ccc(N2CCCC2)c(C(=O)Nc2nc3ccc(F)cc3s2)c1 22.4 µM [activator, single point]
COc1cccc(NC(=O)C2Cc3ccccc3CN2C(=O)c2ccco2)c1 (stereo unspecified) 35.5 µM [activator, single point]
O=C1NC(=Nc2ccc(Cl)cc2)SC1Cc1cc(Cl)ccc1Cl (stereo unspecified) 35.5 µM [inhibitor, single point]
Cc1ccc(NS(=O)(=O)c2cc(C(=O)Nc3cccc(N(C)S(C)(=O)=O)c3)ccc2C)c(C)c1 31.6 µM [activator, single point]
CCOC(=O)c1ccc(NC(=O)c2ccccc2C)cc1 1.41 µM [activator, full curve, poor fit]
COC(=O)c1cccc(NC(=O)c2ccc3c(c2)C(=O)N(C(C)(C)C)C3=O)c1 12.6 µM [activator, partial curve]
NS(=O)(=O)c1cccc(NC(=O)c2cncc(Br)c2)c1 20 µM [activator, single point]
CN(C)S(=O)(=O)c1ccc(NC(=S)NC(=O)C2CCC2)cc1 15.8 µM [inhibitor, single point]
Cc1cc(NC(=O)c2cccc(F)c2)ncc1NC(=O)c1ccco1 0.224 µM [activator, full curve, poor fit]
CC(C)N1CCC2(CC1)N=C(c1ccc3c(c1)OCO3)CC(c1cc(Cl)ccc1O)N2 (stereo unspecified) 22.4 µM [inhibitor, single point]
CC(=O)N[C@H]1C(O[C@@H]2O[C@H](C[C@@H](O)[C@H]3O[C@@H](N4CCC(=O)NC4=O)[C@H](O)[C@@H]3O)[C@H](O)[C@H](O)[C@H]2NC(=O)/C=C/CCCCCCCCCCC(C)C)OC(CO)[C@@H](O)[C@@H]1O (stereo partly specified) 15.8 µM [activator, partial curve]
COc1ccc(C(=O)CCC(=O)Nc2cccnc2)cc1OC 31.6 µM [activator, single point]
CCS(=O)(=O)c1ccc(O)c(NC(=O)COc2ccc(Br)cc2)c1 11.2 µM [activator, partial curve]
CC(C)CNc1ncnc2c1cnn2Cc1ccc(Cl)cc1 15.8 µM [activator, partial curve]
Cc1cc(-c2ccccc2)n2nc(C)c(-c3ccccc3)c2n1 25.1 µM [activator, single point]
Cc1nn(C)cc1CN(C)C(=O)c1nn2c(c1Br)NC(c1cccs1)CC2C(F)(F)F (stereo unspecified) 22.4 µM [activator, single point]
O=S(=O)(NC1CCCCC1)c1ccc(Cl)s1 22.4 µM [inhibitor, single point]
Brc1ccc(-c2ccc(CNCc3ccccn3)o2)cc1 15.8 µM [inhibitor, single point]
O=C(Cc1ccc(Cl)cc1)NCC(=O)N1CCN(c2ccccc2)CC1 35.5 µM [activator, single point]
CCOc1cc(C(=O)OCC(=O)Nc2ncc(Cl)c(C)c2Cl)ccc1OCC(=O)N1CCOCC1 31.6 µM [activator, partial curve, poor fit]
COC(=O)c1[nH]c2cc(OC)ccc2c1NC(=O)CN1CCC(C(N)=O)(N2CCCCC2)CC1 3.16 µM [activator, single point]
Cn1c(N)c(C(=O)COC(=O)C2(c3cccc(F)c3)CCCC2)c(=O)n(C)c1=O 12.6 µM [activator, partial curve]
Nc1[nH]n(-c2ccccc2)c(=O)c1N=Nc1ccccc1[N+](=O)[O-] 22.4 µM [inhibitor, single point]
O=C(NN=C1CCCCCC1)c1cc2ccccc2cc1O 12.6 µM [inhibitor, single point]
COc1ccc(OC)c(C(=O)C2COC(=O)C2)c1 (stereo unspecified) 10 µM [inhibitor, partial curve, poor fit]
Cc1cc(NC(=O)c2cc(-c3ccccn3)nc3c(Cl)cccc23)no1 35.5 µM [inhibitor, single point]
O=C(COC(=O)c1ccc(NS(=O)(=O)c2cccs2)cc1O)Nc1ccc(F)cc1 15.8 µM [activator, single point]
O=C(CN1CCc2ccccc21)NC(=O)NCc1ccccc1 2.82 µM [activator, single point]
O=C(c1ccc(Cn2c(=S)[nH]c3ccc(N4CCOCC4)cc3c2=O)cc1)N1CCN(c2ccc(F)cc2)CC1 6.31 µM [inhibitor, full curve, poor fit]
O=C(NC(=O)c1ccc(F)cc1)Nc1nc(-c2cccs2)cc(C(F)(F)F)n1 8.91 µM [activator, partial curve]
S=c1[nH]nc(C(c2ccccc2)C2CCCCC2)o1 (stereo unspecified) 17.8 µM [inhibitor, single point]
COc1ccc(C(Nc2ccccn2)c2c(NC(=O)c3ccco3)sc(C)c2C)cc1 (stereo unspecified) 11.2 µM [activator, partial curve]
COc1cccc(-c2nc(N3CCN(C)CC3)c3ccccc3n2)c1O 7.94 µM [inhibitor, partial curve]
C=CCNC(=S)NNC(=O)c1ccc2c(c1)OCO2 8.91 µM [inhibitor, partial curve]
CCc1cc(C(=O)N2CCCC(C(=O)c3cccc4ccccc34)C2)n(C)n1 (stereo unspecified) 17.8 µM [activator, partial curve]
Cc1ccc(NC(=O)Cn2sc3nc(C)cc(C)c3c2=O)c(Cl)c1 14.1 µM [inhibitor, single point]
O=C(CNC(=O)c1cccc(Br)c1)N/N=C/c1cccs1 0.0056 µM [inhibitor, full curve, poor fit]
COc1ccc(-c2csc(=Nc3ccccc3)n2CCO)cc1 12.6 µM [activator, partial curve]
COC(=O)C1=C(C)N(CCc2cc(OC)c(OC)c(OC)c2)C(=O)N[C@H]1c1cccs1 25.1 µM [activator, single point]
Cc1cccc(NC(=O)CSc2nc3[nH]ncc3c(=O)n2-c2ccccc2)c1 22.4 µM [activator, single point]
Cc1ccc(-c2nc(S(=O)(=O)c3ccccc3)c(SCC(=O)NCC3CCCO3)o2)cc1 (stereo unspecified) 15.8 µM [activator, single point]
COc1ccc(-c2c3c(=O)n(C)c(=O)n(C)c3cn2-c2ccccc2)cc1 0.158 µM [inhibitor, full curve, poor fit]
CCN(CCCNC(=O)c1cn(CC)c2ccc(S(=O)(=O)N(C)C)cc2c1=O)c1cccc(C)c1 11.2 µM [activator, partial curve]
CCc1c(C)sc(NC(=O)c2cc(C)no2)c1C#N 10 µM [activator, partial curve]

Potency, inactive and 8.91 µM (active):
O=c1cc(-c2ccc(F)cc2F)[nH]c2ccccc12

Activity change, negative = inhibition, inactive:
CC(=O)OC1CC(OC(C)=O)[C@]2(C)C(CC(=O)[C@]3(C)C2CC[C@@]2(C)C(C(=O)O)OC(=O)C4OC423)C1(C)C (stereo partly specified) -9.43%
CCCC(O)(CCC)C(=O)NN1CCCCC1 10.5%
O=C(CCCCCN1C(=O)C2C3C=CC(C3)C2C1=O)Nc1nccs1 (stereo unspecified) 29.3%
Cc1ccccc1C(C(=O)NC1CCCCC1)N(C(=O)CNC(=O)c1ccco1)c1cccnc1 (stereo unspecified) 0.997%
O=C(NNc1c2ccccc2nc2ccccc12)c1ccc(O)cc1O 4.1%
Cc1ccc(NC(=O)COC(=O)c2ccc3c(c2)C(=O)N(CCc2ccccc2)C3=O)c(C)c1 -0.886%
CC(C)CCOP(=O)(c1ccc(N(C)C)cc1)C(O)c1c(Cl)cccc1Cl (stereo unspecified) 32.4%
CCOc1cc(C2C(C#N)=C(N)Oc3n[nH]c(CC)c32)ccc1OCCN1CCOCC1 (stereo unspecified) -37.3%
Cc1cccc(C)c1NC(=O)N1C(C(=O)O)CSC1C(=O)O (stereo unspecified) 16.9%
CCOC(=O)CCc1c(C)nc(SCc2ccc(C(=O)O)cc2)c(C#N)c1C -17.2%
COc1ccc(OC(=O)CCc2c[nH]c3ccccc23)cc1 11.7%
O=C(c1ccc(N2CCOCC2)c([N+](=O)[O-])c1)N1CCCCC1 3.19%
CN(C)Cc1c(C(=O)N/N=C/c2cccc(OCc3c(F)cccc3Cl)c2)nnn1-c1nonc1N 42.8%
COc1ccc(C(=O)C[n+]2ccc(N(C)C)cc2)cc1 21.6%
